Test results: the supplement of paper PMC6411743
± gives the standard deviation of the averaged measurements. Some of the results follow.

The chains behind the UniProt entries cited, without tags or fusion partners. Where a name states a change or a piece, a line headed by the entry shows the natural chain unless it says otherwise.
UniProt P34932: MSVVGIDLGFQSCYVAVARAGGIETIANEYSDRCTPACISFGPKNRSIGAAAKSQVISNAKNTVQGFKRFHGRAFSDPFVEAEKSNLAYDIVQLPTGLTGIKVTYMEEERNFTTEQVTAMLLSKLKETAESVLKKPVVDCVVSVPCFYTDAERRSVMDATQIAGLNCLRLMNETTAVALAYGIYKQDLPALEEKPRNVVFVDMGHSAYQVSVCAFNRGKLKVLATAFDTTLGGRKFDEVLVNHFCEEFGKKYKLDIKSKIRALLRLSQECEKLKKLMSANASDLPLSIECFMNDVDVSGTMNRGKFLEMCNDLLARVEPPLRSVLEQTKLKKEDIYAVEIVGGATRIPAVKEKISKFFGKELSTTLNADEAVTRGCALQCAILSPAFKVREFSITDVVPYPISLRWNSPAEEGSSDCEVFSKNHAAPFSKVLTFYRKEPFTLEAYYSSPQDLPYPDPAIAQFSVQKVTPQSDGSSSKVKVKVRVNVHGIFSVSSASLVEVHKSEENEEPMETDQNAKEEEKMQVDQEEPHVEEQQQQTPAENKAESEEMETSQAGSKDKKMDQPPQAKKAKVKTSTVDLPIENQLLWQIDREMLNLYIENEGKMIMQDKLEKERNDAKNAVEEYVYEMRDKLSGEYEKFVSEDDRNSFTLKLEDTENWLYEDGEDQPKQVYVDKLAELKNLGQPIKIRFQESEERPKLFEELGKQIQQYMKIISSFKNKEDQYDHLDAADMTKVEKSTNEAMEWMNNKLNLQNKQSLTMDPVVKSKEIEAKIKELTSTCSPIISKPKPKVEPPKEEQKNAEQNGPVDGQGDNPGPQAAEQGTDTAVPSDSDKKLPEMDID
UniProt P30291: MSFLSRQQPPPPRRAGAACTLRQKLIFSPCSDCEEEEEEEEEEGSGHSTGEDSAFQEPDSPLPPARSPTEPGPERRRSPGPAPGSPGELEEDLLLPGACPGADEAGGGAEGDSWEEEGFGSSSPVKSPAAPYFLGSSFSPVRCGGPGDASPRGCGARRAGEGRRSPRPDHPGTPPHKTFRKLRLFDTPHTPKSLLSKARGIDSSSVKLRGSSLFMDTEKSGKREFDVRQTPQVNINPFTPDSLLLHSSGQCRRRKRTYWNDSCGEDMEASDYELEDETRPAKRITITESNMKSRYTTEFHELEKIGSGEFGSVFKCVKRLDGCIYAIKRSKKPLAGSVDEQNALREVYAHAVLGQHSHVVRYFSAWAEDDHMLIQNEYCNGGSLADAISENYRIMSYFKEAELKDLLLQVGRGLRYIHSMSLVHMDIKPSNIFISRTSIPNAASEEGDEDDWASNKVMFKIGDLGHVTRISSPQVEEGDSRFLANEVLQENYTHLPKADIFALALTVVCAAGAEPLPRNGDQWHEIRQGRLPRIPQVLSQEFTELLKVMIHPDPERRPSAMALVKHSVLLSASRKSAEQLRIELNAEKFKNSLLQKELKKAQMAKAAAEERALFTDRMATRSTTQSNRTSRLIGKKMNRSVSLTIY
UniProt P30085: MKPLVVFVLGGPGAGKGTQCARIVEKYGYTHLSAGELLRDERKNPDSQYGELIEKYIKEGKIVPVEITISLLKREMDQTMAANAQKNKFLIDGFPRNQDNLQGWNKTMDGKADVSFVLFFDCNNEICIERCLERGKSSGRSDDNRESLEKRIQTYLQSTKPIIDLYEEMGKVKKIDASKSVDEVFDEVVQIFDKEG
UniProt P42696: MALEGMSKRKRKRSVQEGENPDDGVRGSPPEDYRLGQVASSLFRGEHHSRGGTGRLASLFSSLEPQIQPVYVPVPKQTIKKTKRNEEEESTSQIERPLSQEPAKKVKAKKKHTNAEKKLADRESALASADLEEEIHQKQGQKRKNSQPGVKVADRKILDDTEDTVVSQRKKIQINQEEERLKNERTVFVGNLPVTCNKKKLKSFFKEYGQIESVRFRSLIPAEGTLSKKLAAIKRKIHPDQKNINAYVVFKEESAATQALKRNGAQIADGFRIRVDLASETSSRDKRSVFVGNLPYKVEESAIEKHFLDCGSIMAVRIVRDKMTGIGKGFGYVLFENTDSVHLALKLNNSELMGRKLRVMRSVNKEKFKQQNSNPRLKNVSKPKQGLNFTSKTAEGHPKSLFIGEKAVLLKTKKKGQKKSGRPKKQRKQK
UniProt P30533, whole entry: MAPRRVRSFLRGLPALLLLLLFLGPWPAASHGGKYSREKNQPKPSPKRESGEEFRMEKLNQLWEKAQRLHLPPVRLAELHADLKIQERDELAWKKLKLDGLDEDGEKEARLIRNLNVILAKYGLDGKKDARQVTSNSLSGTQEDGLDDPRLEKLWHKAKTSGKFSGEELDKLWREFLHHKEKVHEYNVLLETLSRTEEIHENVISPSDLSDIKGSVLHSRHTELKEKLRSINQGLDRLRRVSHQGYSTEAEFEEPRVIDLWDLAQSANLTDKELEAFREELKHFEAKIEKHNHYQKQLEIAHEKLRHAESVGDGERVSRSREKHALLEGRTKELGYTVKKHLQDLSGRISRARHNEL
UniProt P35221: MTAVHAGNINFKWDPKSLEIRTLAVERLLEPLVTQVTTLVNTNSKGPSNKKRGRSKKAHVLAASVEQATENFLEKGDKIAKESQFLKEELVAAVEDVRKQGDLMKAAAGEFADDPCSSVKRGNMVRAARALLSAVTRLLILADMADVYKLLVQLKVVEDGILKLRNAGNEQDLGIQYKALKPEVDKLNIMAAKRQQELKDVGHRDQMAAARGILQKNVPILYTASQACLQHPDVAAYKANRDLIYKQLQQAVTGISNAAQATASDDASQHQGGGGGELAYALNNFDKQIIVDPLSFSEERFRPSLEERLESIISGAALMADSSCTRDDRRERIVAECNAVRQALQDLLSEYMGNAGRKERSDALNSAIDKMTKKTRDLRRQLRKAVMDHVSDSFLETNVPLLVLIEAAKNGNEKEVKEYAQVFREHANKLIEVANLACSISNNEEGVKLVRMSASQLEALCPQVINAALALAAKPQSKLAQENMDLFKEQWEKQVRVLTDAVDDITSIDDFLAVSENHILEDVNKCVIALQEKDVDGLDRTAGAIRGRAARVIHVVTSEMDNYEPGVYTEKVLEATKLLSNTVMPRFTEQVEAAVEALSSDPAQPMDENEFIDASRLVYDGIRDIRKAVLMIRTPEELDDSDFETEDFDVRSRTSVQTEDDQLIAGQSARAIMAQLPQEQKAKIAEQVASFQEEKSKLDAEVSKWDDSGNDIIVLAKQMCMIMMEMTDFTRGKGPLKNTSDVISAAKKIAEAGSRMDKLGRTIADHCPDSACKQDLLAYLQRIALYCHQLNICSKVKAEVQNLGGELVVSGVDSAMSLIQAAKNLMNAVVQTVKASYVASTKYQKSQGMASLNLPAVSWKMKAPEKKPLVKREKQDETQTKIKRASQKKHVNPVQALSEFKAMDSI
UniProt P35606: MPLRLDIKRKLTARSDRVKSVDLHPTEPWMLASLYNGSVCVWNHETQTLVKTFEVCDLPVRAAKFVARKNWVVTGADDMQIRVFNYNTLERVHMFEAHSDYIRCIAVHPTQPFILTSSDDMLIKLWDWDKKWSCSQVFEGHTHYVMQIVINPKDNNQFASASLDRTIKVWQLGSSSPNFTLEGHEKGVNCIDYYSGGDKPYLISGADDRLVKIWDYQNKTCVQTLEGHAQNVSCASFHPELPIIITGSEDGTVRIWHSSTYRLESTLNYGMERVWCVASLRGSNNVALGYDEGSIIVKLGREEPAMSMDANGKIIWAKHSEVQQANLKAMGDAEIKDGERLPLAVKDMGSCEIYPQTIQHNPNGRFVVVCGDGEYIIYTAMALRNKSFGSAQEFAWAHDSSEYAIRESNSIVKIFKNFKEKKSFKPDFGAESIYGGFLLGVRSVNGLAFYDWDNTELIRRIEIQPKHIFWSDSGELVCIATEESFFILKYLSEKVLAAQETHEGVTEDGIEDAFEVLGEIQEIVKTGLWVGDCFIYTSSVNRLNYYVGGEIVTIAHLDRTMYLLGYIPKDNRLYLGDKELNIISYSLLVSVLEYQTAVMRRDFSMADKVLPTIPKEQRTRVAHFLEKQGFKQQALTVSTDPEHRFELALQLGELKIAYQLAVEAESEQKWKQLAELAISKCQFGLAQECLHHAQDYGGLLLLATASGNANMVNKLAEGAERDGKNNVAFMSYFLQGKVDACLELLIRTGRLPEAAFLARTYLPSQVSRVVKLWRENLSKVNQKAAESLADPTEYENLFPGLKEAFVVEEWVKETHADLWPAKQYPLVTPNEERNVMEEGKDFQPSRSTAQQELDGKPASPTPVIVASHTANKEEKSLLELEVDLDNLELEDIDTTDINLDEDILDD
UniProt P47756, whole entry: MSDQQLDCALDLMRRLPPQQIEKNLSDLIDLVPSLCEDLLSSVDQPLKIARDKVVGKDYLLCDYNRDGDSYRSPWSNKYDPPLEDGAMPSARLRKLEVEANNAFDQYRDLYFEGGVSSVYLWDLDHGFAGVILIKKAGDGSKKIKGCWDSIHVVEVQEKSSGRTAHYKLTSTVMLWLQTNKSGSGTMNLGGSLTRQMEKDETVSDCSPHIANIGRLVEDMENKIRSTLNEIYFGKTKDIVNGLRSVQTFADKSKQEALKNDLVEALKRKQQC
UniProt P35914: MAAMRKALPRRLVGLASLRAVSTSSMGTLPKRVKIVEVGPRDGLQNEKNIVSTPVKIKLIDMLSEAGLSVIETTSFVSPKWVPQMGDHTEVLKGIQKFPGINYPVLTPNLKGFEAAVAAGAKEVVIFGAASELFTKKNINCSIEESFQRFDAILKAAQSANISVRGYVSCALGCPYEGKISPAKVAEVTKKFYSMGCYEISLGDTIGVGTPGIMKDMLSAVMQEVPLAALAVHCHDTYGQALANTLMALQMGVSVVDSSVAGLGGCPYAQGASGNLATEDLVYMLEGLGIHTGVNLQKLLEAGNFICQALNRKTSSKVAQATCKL
UniProt P30307: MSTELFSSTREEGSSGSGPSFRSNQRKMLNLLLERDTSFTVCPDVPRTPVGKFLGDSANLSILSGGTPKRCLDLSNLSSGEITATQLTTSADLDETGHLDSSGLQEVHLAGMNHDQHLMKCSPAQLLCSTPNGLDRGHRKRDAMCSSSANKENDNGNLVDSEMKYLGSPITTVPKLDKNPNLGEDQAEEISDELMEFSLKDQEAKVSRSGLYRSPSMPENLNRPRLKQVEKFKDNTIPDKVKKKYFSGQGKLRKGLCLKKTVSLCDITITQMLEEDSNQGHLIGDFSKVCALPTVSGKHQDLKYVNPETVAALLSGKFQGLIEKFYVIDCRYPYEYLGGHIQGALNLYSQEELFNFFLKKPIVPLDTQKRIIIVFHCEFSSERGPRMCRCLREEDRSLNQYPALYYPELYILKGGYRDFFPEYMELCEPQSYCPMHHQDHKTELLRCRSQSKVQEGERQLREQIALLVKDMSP
UniProt P31948, whole entry, looked up: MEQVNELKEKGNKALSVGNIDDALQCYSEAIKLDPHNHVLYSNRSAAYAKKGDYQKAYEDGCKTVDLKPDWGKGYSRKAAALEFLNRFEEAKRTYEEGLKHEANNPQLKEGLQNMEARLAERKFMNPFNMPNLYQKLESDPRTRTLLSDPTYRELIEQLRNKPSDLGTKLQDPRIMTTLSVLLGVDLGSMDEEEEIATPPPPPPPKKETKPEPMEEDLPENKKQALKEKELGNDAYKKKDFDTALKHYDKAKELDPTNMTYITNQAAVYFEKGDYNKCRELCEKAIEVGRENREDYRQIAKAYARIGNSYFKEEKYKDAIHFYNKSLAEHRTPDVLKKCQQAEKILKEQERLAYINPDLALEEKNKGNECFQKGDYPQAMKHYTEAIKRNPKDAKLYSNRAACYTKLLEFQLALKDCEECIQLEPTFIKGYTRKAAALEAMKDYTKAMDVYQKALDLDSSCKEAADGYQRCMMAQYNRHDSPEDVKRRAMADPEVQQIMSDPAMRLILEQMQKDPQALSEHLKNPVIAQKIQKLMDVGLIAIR
UniProt P31942: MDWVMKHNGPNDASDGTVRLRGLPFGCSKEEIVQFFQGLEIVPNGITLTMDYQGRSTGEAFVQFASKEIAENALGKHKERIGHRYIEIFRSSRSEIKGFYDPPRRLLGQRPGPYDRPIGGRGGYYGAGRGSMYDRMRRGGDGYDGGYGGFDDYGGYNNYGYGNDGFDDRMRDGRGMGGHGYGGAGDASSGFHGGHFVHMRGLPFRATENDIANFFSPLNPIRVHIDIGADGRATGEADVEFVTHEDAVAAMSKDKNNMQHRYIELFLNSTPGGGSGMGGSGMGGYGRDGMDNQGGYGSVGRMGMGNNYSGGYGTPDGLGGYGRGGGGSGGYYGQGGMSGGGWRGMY
UniProt P30044: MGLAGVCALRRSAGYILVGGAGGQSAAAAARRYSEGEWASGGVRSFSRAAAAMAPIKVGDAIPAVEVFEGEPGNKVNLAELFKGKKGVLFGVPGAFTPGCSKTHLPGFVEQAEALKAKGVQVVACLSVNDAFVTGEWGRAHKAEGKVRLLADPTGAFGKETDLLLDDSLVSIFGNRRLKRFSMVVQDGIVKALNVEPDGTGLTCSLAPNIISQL

Compound: Nc1nc2c(ncn2[C@@H]2O[C@H](COP(=O)(O)OP(=O)(O)OP(=O)(O)O)[C@@H](O)[C@H]2O)c(=O)[nH]1 [guanosine triphosphate]
Experiment: NP40-soluble protein abundance relative to vehicle (solubility fold change) (ratio); higher = more soluble protein in presence of GTP
Procedure, shortened: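 Values are fold changes against the detergent-processed vehicle, based on vsn-normalised intensities. Jurkat crude lysate was treated at eight concentrations from 0.1 to 10 mM (10 min at room temperature, then 3 min at 37 °C), solubilised with 0.8% NP40 and benzonase, ultracentrifuged and analysed by TMT-labelled LC-MS/MS over three independent experiments.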

Target | NP40-soluble protein abundance (concentration: 0.1mM) | NP40-soluble protein abundance (concentration: 0.5mM) | NP40-soluble protein abundance (concentration: 1mM) | NP40-soluble protein abundance (concentration: 2mM) | NP40-soluble protein abundance (concentration: 4mM) | NP40-soluble protein abundance (concentration: 6mM) | NP40-soluble protein abundance (concentration: 8mM) | NP40-soluble protein abundance (concentration: 10mM)
PGM1 (UniProt P36871) | 1.03 ± 0.026 | 1.02 ± 0.034 | 0.9372 ± 0.0089 | 0.933 ± 0.056 | 0.918 ± 0.034 | 0.891 ± 0.015 | 0.867 ± 0.063 | 0.832 ± 0.062
HSPA4 (UniProt P34932) | 0.951 ± 0.05 | 0.98 ± 0.058 | 0.949 ± 0.056 | 0.919 ± 0.059 | 0.903 ± 0.056 | 0.912 ± 0.05 | 0.92 ± 0.053 | 0.916 ± 0.06
UniProt P30291 and related entries | 1.08 ± 0.062 | 1.14 ± 0.0025 | 1.08 ± 0.034 | 1.17 ± 0.025 | 1.12 ± 0.033 | 1.14 ± 0.092 | 1.12 ± 0.07 | 1.05 ± 0.023
PPIF (UniProt P30405) | 0.881 ± 0.08 | 0.902 ± 0.067 | 0.863 ± 0.064 | 0.876 ± 0.078 | 0.853 ± 0.091 | 0.868 ± 0.087 | 0.836 ± 0.11 | 0.887 ± 0.079
CMPK1 (UniProt P30085) | 0.939 ± 0.02 | 0.917 ± 0.029 | 0.909 ± 0.044 | 0.873 ± 0.048 | 0.874 ± 0.057 | 0.876 ± 0.04 | 0.869 ± 0.099 | 0.866 ± 0.053
RBM34 (UniProt P42696) | 1.08 ± 0.0039 | 1.05 ± 0.034 | 1.14 ± 0.028 | 1.23 ± 0.065 | 1.41 ± 0.066 | 1.57 ± 0.12 | 1.68 ± 0.12 | 1.83 ± 0.066
UniProt P48960 and related entries | 0.971 ± 0.076 | 0.957 ± 0.091 | 1.02 ± 0.088 | 0.99 ± 0.14 | 0.973 ± 0.11 | 0.943 ± 0.093 | 0.996 ± 0.085 | 1.03 ± 0.051
KIF5B (UniProt P33176) | 0.951 ± 0.074 | 0.986 ± 0.073 | 0.965 ± 0.074 | 0.938 ± 0.081 | 0.933 ± 0.067 | 0.963 ± 0.077 | 0.971 ± 0.073 | 0.959 ± 0.079
LRPAP1 (UniProt P30533) | 0.95 ± 0.047 | 0.973 ± 0.084 | 1.04 ± 0.059 | 1.11 ± 0.12 | 1.2 ± 0.1 | 1.25 ± 0.098 | 1.23 ± 0.14 | 1.32 ± 0.068
PIK3R1 (UniProt P27986) | 1.05 ± 0.042 | 1.05 ± 0.059 | 0.975 ± 0.019 | 0.972 ± 0.023 | 0.96 ± 0.046 | 0.939 ± 0.022 | 0.939 ± 0.017 | 0.9 ± 0.059
FNTA (UniProt P49354) | 0.922 ± 0.04 | 0.921 ± 0.082 | 0.938 ± 0.058 | 0.958 ± 0.029 | 0.954 ± 0.014 | 0.9151 ± 0.0052 | 0.899 ± 0.066 | 0.908 ± 0.033
UniProt P50395 and related entries | 0.966 ± 0.022 | 0.999 ± 0.023 | 0.916 ± 0.02 | 0.899 ± 0.0095 | 0.882 ± 0.012 | 0.89 ± 0.017 | 0.859 ± 0.04 | 0.829 ± 0.057
UniProt P35221 and related entries | 1.02 ± 0.039 | 0.973 ± 0.089 | 1.01 ± 0.077 | 0.961 ± 0.036 | 0.985 ± 0.072 | 0.944 ± 0.071 | 0.995 ± 0.012 | 0.969 ± 0.061
UniProt P41227-2 | 0.971 ± 0.12 | 0.979 ± 0.079 | 0.973 ± 0.11 | 0.947 ± 0.079 | 0.97 ± 0.099 | 0.953 ± 0.08 | 0.959 ± 0.1 | 0.969 ± 0.097
UniProt P35606 and related entries | 1.04 ± 0.075 | 1.07 ± 0.11 | 0.994 ± 0.089 | 1.04 ± 0.12 | 1.04 ± 0.12 | 1.03 ± 0.12 | 1.01 ± 0.097 | 0.984 ± 0.087
UniProt P47756-2 | 0.967 ± 0.058 | 0.985 ± 0.056 | 0.972 ± 0.052 | 0.948 ± 0.061 | 0.953 ± 0.059 | 0.951 ± 0.058 | 0.965 ± 0.054 | 0.952 ± 0.059
UniProt P49750-4 | 1.01 ± 0.013 | 1.04 ± 0.033 | 1.11 ± 0.038 | 1.16 ± 0.064 | 1.27 ± 0.034 | 1.37 ± 0.058 | 1.54 ± 0.13 | 1.62 ± 0.17
CAPZA2 (UniProt P47755) | 0.929 ± 0.072 | 1 ± 0.049 | 0.935 ± 0.053 | 0.96 ± 0.065 | 0.918 ± 0.087 | 0.965 ± 0.037 | 0.943 ± 0.08 | 0.977 ± 0.074
HMGCL (UniProt P35914) | 0.92 ± 0.032 | 0.878 ± 0.022 | 0.924 ± 0.045 | 0.932 ± 0.071 | 0.896 ± 0.035 | 0.899 ± 0.038 | 0.842 ± 0.054 | 0.897 ± 0.055
CBX5 (UniProt P45973) | 0.913 ± 0.025 | 0.936 ± 0.053 | 1.08 ± 0.036 | 1.1 ± 0.1 | 1.22 ± 0.069 | 1.29 ± 0.088 | 1.39 ± 0.054 | 1.48 ± 0.046
IQGAP1 (UniProt P46940) | 0.9994 ± 0.0077 | 1.03 ± 0.025 | 0.933 ± 0.017 | 0.935 ± 0.03 | 0.931 ± 0.0097 | 0.932 ± 0.021 | 0.917 ± 0.026 | 0.895 ± 0.043
UniProt P30307 and related entries | 1.12 ± 0.12 | 1.12 ± 0.015 | 1.07 ± 0.051 | 1.16 ± 0.05 | 1.09 ± 0.021 | 1.07 ± 0.085 | 1.03 ± 0.044 | 1.02 ± 0.14
CCT6A (UniProt P40227) | 1.05 ± 0.066 | 1.1 ± 0.14 | 1.08 ± 0.15 | 1.06 ± 0.18 | 0.979 ± 0.13 | 1.03 ± 0.19 | 1.09 ± 0.25 | 0.962 ± 0.18
STIP1 (UniProt P31948) | 0.857 ± 0.02 | 0.864 ± 0.031 | 1.01 ± 0.028 | 0.969 ± 0.051 | 0.94 ± 0.011 | 0.98 ± 0.032 | 0.966 ± 0.021 | 0.993 ± 0.048
UniProt P42765 and related entries | 0.938 ± 0.057 | 0.971 ± 0.036 | 0.92 ± 0.038 | 0.901 ± 0.043 | 0.89 ± 0.045 | 0.898 ± 0.029 | 0.889 ± 0.042 | 0.867 ± 0.039
UniProt P31942 and related entries | 0.98 ± 0.02 | 1.06 ± 0.02 | 1.08 ± 0.094 | 1.15 ± 0.15 | 1.16 ± 0.2 | 1.22 ± 0.19 | 1.22 ± 0.2 | 1.2 ± 0.18
UniProt P48449 and related entries | 1.04 ± 0.029 | 1.05 ± 0.053 | 0.912 ± 0.019 | 0.922 ± 0.081 | 0.923 ± 0.024 | 0.892 ± 0.0077 | 0.867 ± 0.04 | 0.855 ± 0.068
UniProt P40925 and related entries | 0.939 ± 0.042 | 0.939 ± 0.035 | 0.918 ± 0.044 | 0.857 ± 0.046 | 0.861 ± 0.057 | 0.869 ± 0.041 | 0.863 ± 0.055 | 0.818 ± 0.053
CSK (UniProt P41240) | 0.993 ± 0.016 | 0.982 ± 0.018 | 0.929 ± 0.043 | 0.898 ± 0.045 | 0.884 ± 0.06 | 0.874 ± 0.056 | 0.862 ± 0.065 | 0.829 ± 0.081
UniProt P30044 and related entries | 0.913 ± 0.061 | 0.885 ± 0.088 | 0.96 ± 0.059 | 0.924 ± 0.098 | 0.95 ± 0.099 | 0.913 ± 0.092 | 0.885 ± 0.11 | 0.871 ± 0.098

Single records (already shown). Values in the order: NP40-soluble protein abundance (concentration: 0.1mM)	NP40-soluble protein abundance (concentration: 0.5mM)	NP40-soluble protein abundance (concentration: 1mM)	NP40-soluble protein abundance (concentration: 2mM)	NP40-soluble protein abundance (concentration: 4mM)	NP40-soluble protein abundance (concentration: 6mM)	NP40-soluble protein abundance (concentration: 8mM)	NP40-soluble protein abundance (concentration: 10mM)
UniProt P48960 and related entries is entered as 0.971 ± 0.076	0.957 ± 0.091	1.02 ± 0.088	0.99 ± 0.14	0.973 ± 0.11	0.943 ± 0.093	0.996 ± 0.085	1.03 ± 0.051
UniProt P41227-2 is entered as 0.971 ± 0.12	0.979 ± 0.079	0.973 ± 0.11	0.947 ± 0.079	0.97 ± 0.099	0.953 ± 0.08	0.959 ± 0.1	0.969 ± 0.097
